Reference: publication PMC2890405
These are yes or no findings as the source states them, for the method shown. Binding seen in cells or lysates may run through a third protein.

By UniProt entry, the sequences of proteins in these tests, tags left out. Where a name states a change or a piece, a line headed by the entry shows the natural chain unless it says otherwise.
UniProt Q5VTY9: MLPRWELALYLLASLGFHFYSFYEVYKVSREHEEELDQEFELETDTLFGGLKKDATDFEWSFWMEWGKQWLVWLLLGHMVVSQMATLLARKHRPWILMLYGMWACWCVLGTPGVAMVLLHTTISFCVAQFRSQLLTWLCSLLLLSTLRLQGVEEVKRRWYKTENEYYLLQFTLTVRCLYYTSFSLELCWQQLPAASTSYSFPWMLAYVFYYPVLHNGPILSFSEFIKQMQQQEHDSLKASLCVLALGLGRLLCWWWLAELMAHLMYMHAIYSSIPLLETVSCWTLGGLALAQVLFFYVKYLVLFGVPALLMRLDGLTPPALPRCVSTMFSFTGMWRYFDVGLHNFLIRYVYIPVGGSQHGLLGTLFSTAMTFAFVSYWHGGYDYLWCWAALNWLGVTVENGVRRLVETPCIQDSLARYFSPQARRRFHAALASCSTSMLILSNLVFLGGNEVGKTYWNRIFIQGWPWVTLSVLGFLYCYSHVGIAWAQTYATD
UniProt Q15465: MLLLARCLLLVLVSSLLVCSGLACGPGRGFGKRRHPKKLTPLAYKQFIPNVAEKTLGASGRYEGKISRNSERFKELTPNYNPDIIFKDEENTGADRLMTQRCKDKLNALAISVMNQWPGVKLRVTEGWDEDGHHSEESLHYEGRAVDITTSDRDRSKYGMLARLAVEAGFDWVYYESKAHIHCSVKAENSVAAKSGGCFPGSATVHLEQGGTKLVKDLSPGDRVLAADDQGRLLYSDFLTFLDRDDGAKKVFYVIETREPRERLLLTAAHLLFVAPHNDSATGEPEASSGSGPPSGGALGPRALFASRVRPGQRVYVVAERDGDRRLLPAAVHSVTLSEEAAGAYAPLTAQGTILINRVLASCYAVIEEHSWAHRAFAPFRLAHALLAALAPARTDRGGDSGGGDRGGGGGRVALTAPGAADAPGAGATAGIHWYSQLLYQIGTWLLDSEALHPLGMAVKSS

Target: Hedgehog acyltransferase (Hhat) (UniProt Q5VTY9)
Experiment: co-IP + pull-down; co-immunoprecipitation and pulldown assays to monitor Hhat interactions with Shh; bait, conditions and which method went with which Shh form are not told

Row | binding | Substance
1 | no binding | full length human Sonic hedgehog (Shh) (from UniProt Q15465 24-462)
2 | no binding | recombinant ShhN purified from E. coli (Shh24-197) (from UniProt Q15465 24-197) (domain or fragment)
